Experimental data reported in PubChem BioAssay AID504444 (National Center for Advancing Translational Sciences (NCATS), 2011).
“And” between values parts separate entries of the source, which are not always exact repeats. Equal values may be shown once. Out of some 360,000 compounds screened, about 7,500 (2.1%) were called active. The shares of active, inactive and inconclusive entries below differ from those in the screen. Calls follow the shape of the dose curve; as a rule, active = well fitted inhibition curve with a large enough effect; inconclusive = small, poorly fitted or top-dose-only effect, or effect the other way; inactive = flat fitted curve, though single readings scatter. Potencies of inconclusive entries are doubtful fits and often do not repeat.

Assay: Nrf2 qHTS screen for inhibitors; also: nearly all actives have a fitted effect of over 60% in size
Conditions: A549 ARE-Fluc reporter, luciferase luminescence, 18-24 h; activity change, negative = inhibition: at 46 µM (top of the series)
Outline: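 Nrf2 function is reported as luminescence of an ARE-controlled luciferase in A549 cells. Compounds were tested at several concentrations, and a CellTiter-Fluor read on the same wells flagged cytotoxicity.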
% is scaled to controls: 0 for no effect and ±100 for the full control effect; potency is read from the fitted curve at half-maximal effect.

**Q.** Which Potency does the source give for `Cc1sc2ncnc(NC3CCN(Cc4ccccc4)CC3)c2c1C` here?
**A.** Its Potency is active: 4.61 µM.

**Q.** For `Cc1ccc(C(=O)Oc2coc(CSc3nnc(NC(=O)c4cccs4)s3)cc2=O)cc1`, which Potency is on record?
**A.** The Potency was active: 6.51 µM.

**Q.** Which Potency does the source give for `CN(C)c1ccc(N=Nc2ccc3ncccc3c2)cc1` here?
**A.** The Potency was inconclusive: 14.6 µM [activator, partial curve].

**Q.** For `O=C(CSc1nc2ccccc2o1)Nc1nc(-c2ccccc2)cs1`, which Potency is on record?
**A.** The Potency was inconclusive: 14.6 µM [activator, partial curve, poor fit].

**Q.** Which Potency does the source give for `COc1ccc(S(=O)(=O)Nc2ccccc2SC)cc1C` here?
**A.** Its Potency is inconclusive: 20.6 µM [falling, single point].

**Q.** For `COc1ccc(/C=C2/SC(=S)N(CCC(=O)O)C2=O)cc1`, which Potency is on record?
**A.** Its Potency is inconclusive: 0.411 µM [falling, full curve, poor fit].

**Q.** With `O=C(N/N=C/c1c(O)ccc2ccccc12)c1[nH]ncc1Br` as the molecule, how does the Potency read?
**A.** The Potency was inconclusive: 18.4 µM [falling, single point].

**Q.** For `CC(=O)Nc1ccc(NC(=O)CNC(=O)COc2ccccc2)cc1`, which Potency is on record?
**A.** Its Potency is inconclusive: 25.9 µM [activator, partial curve, poor fit].

**Q.** With `Cn1c(=O)oc2cc(S(=O)(=O)Nc3cccc(F)c3)ccc21` as the molecule, how does the Potency read?
**A.** Its Potency is “inactive”.

**Q.** Which Potency does the source give for `C/C=C(/C)C(=O)OC1c2c(ccc3ccc(=O)oc23)OC(C)(C)C1OC(=O)/C(C)=C\C` (stereo not given) here?
**A.** The Potency was inconclusive: 20.6 µM [falling, partial curve, poor fit].

**Q.** For `Cc1ccccc1S(=O)Cc1ccc(C(=O)N2CCN(c3cccc(C)c3C)CC2)o1` (stereo not given), which Potency is on record?
**A.** Its Potency is inconclusive: 32.6 µM [falling, single point].

**Q.** With `Cc1ccc(C)c(NC(=O)CS(=O)(=O)c2cccc3nsnc23)c1` as the molecule, how does the Potency read?
**A.** Its Potency is inconclusive: 2.06 µM [falling, partial curve].

**Q.** Which Potency does the source give for `C=CCOc1c(CNc2ccc(S(N)(=O)=O)cc2)cccc1OC` here?
**A.** The Potency was “inactive”.

**Q.** For `Cc1cc(C(=O)C(=O)N(C)C)c(C)n1-c1ccc([N+](=O)[O-])cc1`, which Potency is on record?
**A.** The Potency was inconclusive: 6.51 µM [activator, single point].

**Q.** Which Potency does the source give for `CSCCC(NC(=O)C1CCC(C)CC1)C(=O)Nc1ccc(NC(C)=O)cc1` (stereo not given) here?
**A.** Its Potency is “inactive”.

**Q.** Which Potency does the source give for `CC(=O)c1cccc(NC(=O)C(C)n2c(=O)cc(C)c3c(C)nn(-c4ccccc4)c32)c1` (stereo not given) here?
**A.** Its Potency is inconclusive: 20.6 µM [falling, single point].

**Q.** Which Potency does the source give for `COc1ccc(CCNC(=O)c2ccc(Nc3nc4ccccc4n4nnnc34)cc2)cc1OC` here?
**A.** Its Potency is inconclusive: 29.1 µM [falling, single point].

**Q.** With `O=C(Nc1ccc(S(=O)(=O)N2CCOCC2)cc1)c1cc(S(=O)(=O)N2CCOCC2)ccc1Cl` as the molecule, how does the Potency read?
**A.** Its Potency is inconclusive: 29.1 µM [falling, single point].

**Q.** Which Potency does the source give for `Cc1nn(-c2ccccc2)c2c1C(c1ccc(F)cc1)C(C#N)=C(N)O2` (stereo not given) here?
**A.** The Potency was “inactive”.

**Q.** For `COc1ccc2oc(C(=O)NCC(Cc3ccccc3)N(C)C)c(C)c2c1` (stereo not given), which Potency is on record?
**A.** The Potency was inconclusive: 2.06 µM [activator, full curve].

**Q.** With `Cc1cccc(N(CC(O)Cn2c3ccccc3c3ccccc32)S(=O)(=O)c2ccc(F)cc2)c1` (stereo not given) as the molecule, how does the Potency read?
**A.** Its Potency is inconclusive: 29.1 µM [falling, single point].

**Q.** With `CCOC(=O)c1c(C)nc2sc3c(=O)n(-c4ccc(C(C)=O)cc4)nnc3c2c1-c1ccc(Cl)cc1` as the molecule, how does the Potency read?
**A.** Its Potency is active: 18.4 µM.

**Q.** Which Potency does the source give for `O=C(O)c1ccc(-c2noc(-c3ccc(F)cc3)n2)cc1` here?
**A.** Its Potency is inconclusive: 3.26 µM [activator, partial curve, poor fit].

**Q.** With `Oc1c(N=NC(=S)Nc2ccccc2F)c2ccccc2n1Cc1cccc(Cl)c1` as the molecule, how does the Potency read?
**A.** Its Potency is inconclusive: 4.11 µM [falling, full curve, poor fit].

**Q.** For `O=P(c1ccccc1)(c1ccccc1)c1cnc2ccccn12`, which Potency is on record?
**A.** Its Potency is “inactive”.

**Q.** With `CN(CCCNC(=O)c1cc2c(Cl)nc3ccccc3c2s1)Cc1ccccc1` as the molecule, how does the Potency read?
**A.** The Potency was “inactive and inconclusive: 32.6 µM [activator, single point]”.

**Q.** Which Potency does the source give for `Cc1c(Cl)cccc1NC(=O)CSc1ncc2c(n1)-c1ccccc1N(C)S2(=O)=O` here?
**A.** Its Potency is inconclusive: 32.6 µM [activator, single point].

**Q.** Which Potency does the source give for `CCN(CC)CCNC(=O)c1c(C)oc2ncnc(N3CCOCC3)c12` here?
**A.** The Potency was inconclusive: 29.1 µM [activator, single point].

**Q.** Which Potency does the source give for `CC(=O)N1CCSc2ccc(S(=O)(=O)Nc3ccc(C)cc3)cc21` here?
**A.** Its Potency is inconclusive: 32.6 µM [falling, single point].

**Q.** Which Potency does the source give for `COC(=O)c1cc2ccsc2n1CC(=O)Nc1cc(Cl)ccc1OC` here?
**A.** The Potency was inconclusive: 32.6 µM [falling, single point].

**Q.** For `COc1cc(C)c(CN2CCN(CC(=O)Nc3ccccc3C(=O)NC3CC3)CC2)cc1OC`, which Potency is on record?
**A.** The Potency was “inactive”.

**Q.** Which Potency does the source give for `CCOc1ccc(CCNC(=O)c2cnc3sc(N(CC)CC)nn3c2=O)cc1OCC` here?
**A.** The Potency was “inactive”.

**Q.** For `COc1cccc(-c2nc(-c3ccc4c(c3)-c3ccccc3S4(=O)=O)c(-c3ccccc3)[nH]2)c1OC`, which Potency is on record?
**A.** Its Potency is “inactive”.

**Q.** With `CC(C)(C)c1cc(CCC(=O)NCC2CCCO2)cc(C(C)(C)C)c1O` (stereo not given) as the molecule, how does the Potency read?
**A.** Its Potency is “inactive”.

**Q.** With `Cc1cc(C)c(NC(=O)Cn2cc(S(=O)(=O)Cc3ccccc3F)c3ccccc32)c(C)c1` as the molecule, how does the Potency read?
**A.** Its Potency is inconclusive: 23.1 µM [activator, single point].

**Q.** With `CC(=O)Nc1ccc(-c2csc(NC(=O)CCCc3cccs3)n2)cc1` as the molecule, how does the Potency read?
**A.** Its Potency is “inactive”.

**Q.** Which Potency does the source give for `CC1CC(=O)N(CC(=O)Nc2ccccc2F)c2ccccc2S1(=O)=O` (stereo not given) here?
**A.** The Potency was “inactive”.

**Q.** Which Potency does the source give for `COc1ccc(NC(=O)C2=CC(c3ccc(C)cc3)=NS(=O)(=O)N2C)cc1OC` here?
**A.** Its Potency is inconclusive: 25.9 µM [falling, single point].

**Q.** With `O=C(Nc1ccc2c(c1)Cc1ccccc1-2)c1ccncc1` as the molecule, how does the Potency read?
**A.** The Potency was “inactive”.

**Q.** For `COC(=O)[C@@H](NC(=O)NCc1ccc(F)cc1)C(C)C`, which Potency is on record?
**A.** Its Potency is inconclusive: 2.06 µM [falling, partial curve, poor fit].

**Q.** Which Potency does the source give for `Cc1ncc(CO)c(/C=N/NC(=O)c2ccoc2C)c1O` here?
**A.** Its Potency is inconclusive: 29.1 µM [falling, partial curve, poor fit].

**Q.** With `Cc1ccccc1OCC(=O)Nc1cccc(S(=O)(=O)NC2=NCCC2)c1` as the molecule, how does the Potency read?
**A.** The Potency was inconclusive: 32.6 µM [falling, partial curve, poor fit].

**Q.** For `Oc1[nH]c2ccccc2c1/C=N/c1nccs1`, which Potency is on record?
**A.** Its Potency is inconclusive: 1.46 µM [activator, full curve, poor fit].

**Q.** For `O=C(Nc1ccccc1Cl)C(Cl)C(=O)c1ccccc1` (stereo not given), which Potency is on record?
**A.** Its Potency is “inactive”.

**Q.** With `CCN(CC)CCCN=Cc1c(-c2ccccc2)[nH]n(-c2nc3ccccc3s2)c1=O` as the molecule, how does the Potency read?
**A.** Its Potency is inconclusive: 4.11 µM [activator, full curve, poor fit].

**Q.** Which Potency does the source give for `OC(Cc1nc2ccccc2[nH]1)c1ccccc1Cl` (stereo not given) here?
**A.** Its Potency is inconclusive: 5.17 µM [activator, full curve].

**Q.** With `CC(=O)Nc1ccc(S(=O)(=O)N2CCN(S(=O)(=O)c3ccc4c(c3)OCCO4)CC2)cc1` as the molecule, how does the Potency read?
**A.** Its Potency is inconclusive: 29.1 µM [falling, single point].

**Q.** With `Cc1cc(C)cc(NC(=O)N2CCC3(CC2)Oc2ccccc2C(=O)N3Cc2ccccc2F)c1` as the molecule, how does the Potency read?
**A.** The Potency was inconclusive: 5.17 µM [falling, partial curve, poor fit].

**Q.** Which Potency does the source give for `Cc1ccc(CNC(=O)COc2ccc(S(=O)(=O)N3CCCC3)cc2)cc1` here?
**A.** Its Potency is “inactive”.

**Q.** For `CC1CCc2c(sc3nc(-c4cc5cc(Br)ccc5oc4=O)[nH]c(=O)c23)C1` (stereo not given), which Potency is on record?
**A.** The Potency was inconclusive: 1.16 µM [activator, partial curve, poor fit].

**Q.** For `O=C(CCS(=O)(=O)c1cccc2nonc12)Nc1c(F)cccc1F`, which activity change, negative = inhibition is on record?
**A.** Its activity change, negative = inhibition is inactive: 1.81% [at 9.27 µM].

**Q.** For `CCC(C)[C@H](NC(=O)C1CCC(CNC(=O)[C@@H]2CCCN2C(=O)OC(C)(C)C)CC1)C(=O)O` (stereo not given in full), which Potency is on record?
**A.** The Potency was “inactive”.

**Q.** Which Potency does the source give for `O=C(O)c1cccc2cccc(-c3c4ccc(=O)c(O)c-4oc4c(O)c(O)ccc34)c12` here?
**A.** The Potency was inconclusive: 32.6 µM [falling, single point].

**Q.** Which Potency does the source give for `Fc1ccc(-c2cc(C(F)(F)F)nc(-n3cc(Cl)cn3)n2)cc1` here?
**A.** Its Potency is inconclusive: 1.84 µM [falling, full curve].

**Q.** With `COc1ccc(Br)c(C(=O)Nc2cc3c(cc2N2CCOCC2)n(C)c(=O)n3C)c1` as the molecule, how does the Potency read?
**A.** The Potency was “inactive”.

**Q.** Which Potency does the source give for `Fc1cc(NCc2ccccc2)nc(NCc2ccccc2)n1` here?
**A.** The Potency was inconclusive: 25.9 µM [activator, single point].

**Q.** With `O=C(CSc1nnc(-c2ccccc2F)o1)N1CCNC1=O` as the molecule, how does the Potency read?
**A.** Its Potency is inconclusive: 2.59 µM [activator, partial curve].

**Q.** For `O=C(NC(=S)Nc1ccc(Cl)cc1Cl)C1CC1`, which Potency is on record?
**A.** Its Potency is inconclusive: 10.3 µM [activator, partial curve].

**Q.** Which Potency does the source give for `COc1ccc2c(C)cc(SCC(=O)NC3CCCC3)nc2c1` here?
**A.** Its Potency is “inactive”.

**Q.** With `Cc1ccsc1C(=O)OCC(=O)NCc1ccccc1` as the molecule, how does the Potency read?
**A.** Its Potency is inconclusive: 23.1 µM [activator, single point].

**Q.** For `C[C@H]1O[C@H](O[C@H]2[C@H](O[C@@H]3CC[C@@]4(C)C(CC[C@]5(C)C4CC=C4[C@@H]6CC(C)(C)CC[C@]6(C(=O)O[C@@H]6O[C@H](CO)[C@@H](O)[C@H](O)[C@H]6O)CC[C@]45C)C3(C)C)O[C@H](C(=O)O)[C@@H](O)[C@@H]2O)[C@@H](O)[C@@H](O)[C@@H]1O` (stereo not given in full), which Potency is on record?
**A.** The Potency was inconclusive: 23.1 µM [activator, single point].

**Q.** For `Cc1cccc(N2C(N)=C(C#N)C(C#N)(C#N)C2c2ccccc2)c1` (stereo not given), which Potency is on record?
**A.** Its Potency is inconclusive: 16.4 µM [falling, partial curve].

**Q.** Which Potency does the source give for `CCCn1c(=S)[nH]c2sc3c(c2c1=O)CCCC3` here?
**A.** Its Potency is inconclusive: 29.1 µM [falling, single point].

**Q.** With `CCOC(=O)c1ccc(NC(=O)C2CCN(S(=O)(=O)c3ccc4c(c3)CCCC(=O)N4)CC2)cc1` as the molecule, how does the Potency read?
**A.** Its Potency is inconclusive: 16.4 µM [falling, partial curve, poor fit].

**Q.** For `COC(C(=O)Nc1ccc(S(=O)(=O)Nc2ccc(C)c(C)c2)cc1)c1ccccc1` (stereo not given), which Potency is on record?
**A.** The Potency was inconclusive: 29.1 µM [falling, single point].
